PubChem BioAssay AID1259329, Drosophila RNAi Screening Center – 2017

Assay: 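Total ATP after each knock-down with water instead of metal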
System: Drosophila S2R+ cells
Reagent: long dsRNA against Drosophila genes
Timing: 5 days (4 days knock-down, then 1 day after water)
Treatment: water added as vehicle control, no metal, one day before read-out
Measured: 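Luciferase-based total ATP per well, read one day after adding water without metal following 4 days knock-down, given as z-score averaged across duplicate plates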
Direction: mean ATP z-score: higher = more total ATP, likely more viable cells
Call rule: 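Active means the absolute value of the z-score is over 1.5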
The deposit covers 418 reagents; below is a random part of them. Over the whole deposit, 20 (4.8%) were called active. 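All active calls have high ATP; no reagent fell below -1.5.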 Reagent sequences are not shown. Not given: the amount of reagent, the dose of the treatment.

Against Daao1 (D-amino acid oxidase 1) [DRSC06131], the entry reads mean ATP z-score 0.82; inactive. Against Vha68-1 (Vacuolar H[+] ATPase 68kD subunit 1) [DRSC03470] the deposit lists mean ATP z-score 0.788; inactive. Vha68-1 (Vacuolar H[+] ATPase 68kD subunit 1) [DRSC31230] gave mean ATP z-score -0.969; inactive. With knock-down of Vha68-1 (Vacuolar H[+] ATPase 68kD subunit 1) [DRSC40775], the record shows mean ATP z-score 0.922; inactive. Knock-down of Mfe2 (peroxisomal Multifunctional enzyme type 2) [DRSC19869] resulted in: mean ATP z-score 1.36; inactive. Depletion of Hexo2 (Hexosaminidase 2) [DRSC18671] gave: mean ATP z-score -0.146; inactive.

After knock-down of AP-1gamma (Adaptor Protein complex 1, gamma subunit) [DRSC18433], the record shows mean ATP z-score 0.999; inactive. Knock-down of AP-1gamma (Adaptor Protein complex 1, gamma subunit) [DRSC36403] gave: mean ATP z-score -1.11; inactive. With knock-down of CG1827 [DRSC06719], the record shows mean ATP z-score -0.441; inactive. For Abcd3 (ATP binding cassette subfamily D member 3) [DRSC29341] the deposit lists mean ATP z-score -0.121; inactive. Knock-down of Abcd3 (ATP binding cassette subfamily D member 3) [DRSC41060] gave: mean ATP z-score -0.786; inactive. With knock-down of Abcd3 (ATP binding cassette subfamily D member 3) [DRSC41168], the record shows mean ATP z-score -1.47; inactive.

After knock-down of Gba1b (Glucocerebrosidase 1b) [DRSC21531] the results were mean ATP z-score -0.429; inactive. After knock-down of Vps25 (Vacuolar protein sorting 25) [DRSC06486], the record shows mean ATP z-score 0.726; inactive. For Vps25 (Vacuolar protein sorting 25) [DRSC31962] the deposit lists mean ATP z-score -0.96; inactive. Against Vps25 (Vacuolar protein sorting 25) [DRSC31963] the deposit lists mean ATP z-score -0.914; inactive. Depletion of cathD (cathepsin D) [DRSC07588] gave: mean ATP z-score 1.33; inactive. Silencing of TrpRS-m (Tryptophanyl-tRNA synthetase, mitochondrial) [DRSC10848] gave: mean ATP z-score 0.623; inactive.

With knock-down of TrpRS-m (Tryptophanyl-tRNA synthetase, mitochondrial) [DRSC40413], the record shows mean ATP z-score -0.168; inactive. Arc42 (Activator-recruited cofactor subunit 42) [DRSC14340] showed mean ATP z-score -0.844; inactive. Silencing of Arc42 (Activator-recruited cofactor subunit 42) [DRSC31950] came out at: mean ATP z-score -0.375; inactive. Against Arc42 (Activator-recruited cofactor subunit 42) [DRSC31951] the deposit lists mean ATP z-score 0.307; inactive. Silencing of Gnptab [DRSC07057] came out at: mean ATP z-score 0.455; inactive. Gal (beta galactosidase) [DRSC03134] scored mean ATP z-score 0.162; inactive.

Depletion of Gal (beta galactosidase) [DRSC24562] came out at: mean ATP z-score 1.05; inactive. For CG6508 [DRSC02963], the entry reads mean ATP z-score 1.33; inactive. With knock-down of Ids (Iduronate 2-sulfatase) [DRSC08222], the screen gave mean ATP z-score -0.762; inactive. Against CROT (Carnitine O-octanoyltransferase) [DRSC27733], the entry reads mean ATP z-score 1.72; active. Knock-down of CROT (Carnitine O-octanoyltransferase) [DRSC32670] resulted in: mean ATP z-score -0.367; inactive. Silencing of CROT (Carnitine O-octanoyltransferase) [DRSC32671] gave: mean ATP z-score -1.18; inactive.

Against CG4586 [DRSC18373], the values are mean ATP z-score -0.0655; inactive. With knock-down of CG4586 [DRSC34798], the record shows mean ATP z-score -1.34; inactive. Knock-down of Vps13B (Vacuolar protein sorting 13B) [DRSC15060] gave: mean ATP z-score 0.543; inactive. Vps13B (Vacuolar protein sorting 13B) [DRSC34131] showed mean ATP z-score -1.11; inactive. After knock-down of Vha100-5 (Vacuolar H[+] ATPase 100kD subunit 5) [DRSC26439], the record shows mean ATP z-score 0.394; inactive. Vha100-5 (Vacuolar H[+] ATPase 100kD subunit 5) [DRSC30649] gave mean ATP z-score -0.584; inactive.

With knock-down of Vha100-5 (Vacuolar H[+] ATPase 100kD subunit 5) [DRSC30650] the results were mean ATP z-score -0.385; inactive. Hel25E (Helicase at 25E) [DRSC28348] showed mean ATP z-score 0.365; inactive. Hel25E (Helicase at 25E) [DRSC30679] showed mean ATP z-score -0.28; inactive. After knock-down of Hel25E (Helicase at 25E) [DRSC30680] the results were mean ATP z-score 1.96; active. CG3902 [DRSC10387] gave mean ATP z-score 1.06; inactive. Silencing of CG3902 [DRSC24267] resulted in: mean ATP z-score -0.543; inactive.

Against Chc (Clathrin heavy chain) [DRSC20229], the values are mean ATP z-score -0.655; inactive. Chc (Clathrin heavy chain) [DRSC34418] gave mean ATP z-score 1.59; active. Depletion of Chc (Clathrin heavy chain) [DRSC34419] gave: mean ATP z-score -0.885; inactive. After knock-down of Lerp (lysosomal enzyme receptor protein) [DRSC14751], the screen gave mean ATP z-score 1.63; active. Against Lerp (lysosomal enzyme receptor protein) [DRSC16030], the entry reads mean ATP z-score -0.655; inactive. Silencing of Lerp (lysosomal enzyme receptor protein) [DRSC16031] gave: mean ATP z-score 0.945; inactive.
